Test results published in US11590087B2, “Cannabidiol-type cannabinoid compound” (GW Research Limited, priority 2019, dated 2023).

Test system: tonic hind limb extensor convulsions
Experiment: Maximal electroshock seizure threshold (MEST) test in the mouse
Details: 2.5 mg/kg i.p., 30 min pre-treatment, current giving tonic hind limb extension in 50% of animals
Experimental: The efficacy of 6-OH CBDV was tested in a mouse model of generalised seizure, the maximal electroshock seizure threshold (MEST) test.
The maximal electroshock seizure threshold (MEST) test is widely utilized preclinically to evaluate pro- or anti-convulsant properties of test compounds (Loscher et al., 1991).
In the MEST test the ability of a drug to alter the seizure threshold current required to induce hind limb tonic extensor convulsions is measured according to an “up and down” method of shock titration (Kimball et al., 1957). An increase in seizure threshold is indicative of anti-convulsant effect.
The ability of a test compound to alter the stimulus intensity, expressed as current (mA), required to induce the presence of tonic hind limb extensor convulsions, is assessed in the MEST.
Naïve mice were acclimatised to the procedure room in their home cages for up to 7 days, with food and water available ad libitum.
All animals were weighed at the beginning of the study and randomly assigned to treatment groups based on a mean distribution of body weight across groups. […]
6-OH CBDV effects were also calculated as percentage change in CC50 from the vehicle control group.
Significant difference between drug-treated animals and controls were assessed according to Litchfield and Wilcoxon (1949).

SMILES: CN1C(=O)CN=C(c2ccccc2)c2cc(Cl)ccc21 [Diazepam, diazepam, reference compound]
- CC50 ± SEM: 57.5 ± 0.3 mA
- CC50 ± SEM (listed as diazepam): 57.5 mA
